Results taken from PMC9035678.
No constants are given. Whether binding was seen depends on the method and setting. In cells and extracts the contact can be indirect. Some binding calls cover weakened binding; strength is not graded here. Sequences can lack the tags named with a protein.

Sequences of proteins named here, by UniProt entry; tags and fusion partners are left off.
UniProt Q94AH6: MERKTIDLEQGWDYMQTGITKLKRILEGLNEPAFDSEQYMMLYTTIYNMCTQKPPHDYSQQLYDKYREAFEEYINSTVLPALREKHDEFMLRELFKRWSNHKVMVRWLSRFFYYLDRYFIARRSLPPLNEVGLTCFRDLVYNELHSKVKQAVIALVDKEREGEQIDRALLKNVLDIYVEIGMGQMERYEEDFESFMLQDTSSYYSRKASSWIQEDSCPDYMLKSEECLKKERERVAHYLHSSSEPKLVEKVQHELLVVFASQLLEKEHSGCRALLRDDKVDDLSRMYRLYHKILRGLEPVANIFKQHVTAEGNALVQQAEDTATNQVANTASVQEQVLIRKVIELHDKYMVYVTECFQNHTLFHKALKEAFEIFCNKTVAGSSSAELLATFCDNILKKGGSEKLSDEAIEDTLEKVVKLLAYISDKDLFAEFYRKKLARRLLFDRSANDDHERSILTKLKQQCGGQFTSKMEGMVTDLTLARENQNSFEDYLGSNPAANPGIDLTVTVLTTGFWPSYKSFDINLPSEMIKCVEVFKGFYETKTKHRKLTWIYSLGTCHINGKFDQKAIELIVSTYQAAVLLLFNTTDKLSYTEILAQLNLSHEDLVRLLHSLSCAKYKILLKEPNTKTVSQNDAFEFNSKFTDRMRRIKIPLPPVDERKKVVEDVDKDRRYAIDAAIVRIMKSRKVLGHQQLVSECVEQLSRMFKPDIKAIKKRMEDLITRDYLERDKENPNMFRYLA
UniProt Q39255: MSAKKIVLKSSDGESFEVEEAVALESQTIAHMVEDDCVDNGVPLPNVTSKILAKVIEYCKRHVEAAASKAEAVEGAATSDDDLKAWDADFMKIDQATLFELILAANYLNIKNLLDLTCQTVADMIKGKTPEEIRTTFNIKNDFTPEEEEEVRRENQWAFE

T1: 3HA-FBW2 (3x human influenza hemagglutinin (HA)-epitope at the N terminus of FBW2) (Arabidopsis thaliana) (UniProt Q9ZPE4)
T1 sequence: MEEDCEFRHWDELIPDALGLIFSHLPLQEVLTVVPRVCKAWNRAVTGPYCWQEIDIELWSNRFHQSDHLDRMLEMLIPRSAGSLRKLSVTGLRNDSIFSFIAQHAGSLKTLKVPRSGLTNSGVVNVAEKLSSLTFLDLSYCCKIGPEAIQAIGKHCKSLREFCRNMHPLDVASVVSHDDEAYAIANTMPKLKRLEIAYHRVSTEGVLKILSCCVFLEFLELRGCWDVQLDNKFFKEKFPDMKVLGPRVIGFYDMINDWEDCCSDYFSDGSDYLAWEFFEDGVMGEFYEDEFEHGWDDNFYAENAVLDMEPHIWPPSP

B1: ARGONAUTE1 (AGO1) (protein, UniProt O04379 1-1048)
chain: MVRKRRTDAPSEGGEGSGSREAGPVSGGGRGSQRGGFQQGGGQHQGGRGYTPQPQQGGRGGRGYGQPPQQQQQYGGPQEYQGRGRGGPPHQGGRGGYGGGRGGGPSSGPPQRQSVPELHQATSPTYQAVSSQPTLSEVSPTQVPEPTVLAQQFEQLSVEQGAPSQAIQPIPSSSKAFKFPMRPGKGQSGKRCIVKANHFFAELPDKDLHHYDVTITPEVTSRGVNRAVMKQLVDNYRDSHLGSRLPAYDGRKSLYTAGPLPFNSKEFRINLLDEEVGAGGQRREREFKVVIKLVARADLHHLGMFLEGKQSDAPQEALQVLDIVLRELPTSRYIPVGRSFYSPDIGKKQSLGDGLESWRGFYQSIRPTQMGLSLNIDMSSTAFIEANPVIQFVCDLLNRDISSRPLSDADRVKIKKALRGVKVEVTHRGNMRRKYRISGLTAVATRELTFPVDERNTQKSVVEYFHETYGFRIQHTQLPCLQVGNSNRPNYLPMEVCKIVEGQRYSKRLNERQITALLKVTCQRPIDREKDILQTVQLNDYAKDNYAQEFGIKISTSLASVEARILPPPWLKYHESGREGTCLPQVGQWNMMNKKMINGGTVNNWICINFSRQVQDNLARTFCQELAQMCYVSGMAFNPEPVLPPVSARPEQVEKVLKTRYHDATSKLSQGKEIDLLIVILPDNNGSLYGDLKRICETELGIVSQCCLTKHVFKMSKQYMANVALKINVKVGGRNTVLVDALSRRIPLVSDRPTIIFGADVTHPHPGEDSSPSIAAVVASQDWPEITKYAGLVCAQAHRQELIQDLFKEWKDPQKGVVTGGMIKELLIAFRRSTGHKPLRIIFYRDGVSEGQFYQVLLYELDAIRKACASLEAGYQPPVTFVVVQKRHHTRLFAQNHNDRHSVDRSGNILPGTVVDSKICHPTEFDFYLCSHAGIQGTSRPAHYHVLWDENNFTADGLQSLTNNLCYTYARCTRSVSIVPPAYYAHLAAFRARFYMEPETSDSGSMASGSMARGGGMAGRSTRGPNVNAAVRPLPALKENVKRVMFYC

Molecular target: T1, 3HA-FBW2 (3x human influenza hemagglutinin (HA)-epitope at the N terminus of FBW2) (Arabidopsis thaliana)
Test: co-IP; 3HA-FBW2 immunoprecipitated with anti-HA magnetic beads from extracts of 10-day-old XVE:3HA-FBW2 seedlings after overnight induction with DMSO or 10 μM β-estradiol, with or without MLN4924; IP buffer 25 mM Tris HCl pH 7.5, 150 mM NaCl, 10% glycerol, 5 mM MgCl2, 0.1% Tween 20, 15 mM EGTA, 10 μM MG132; 3 h at room temperature; western blot (Figure 2B, Figure S9)

| Molecule | binding |
| --- | --- |
| cullin 1 (CUL1) (from UniProt Q94AH6 1-738) | binds |
| ASK1 (Skp1-like protein) (from UniProt Q39255 1-160) | binds |
| B1 | binds |
